Positions count from the first letter of the chain named. For at least one entry, the source does not settle the construct or the ends of the probe. For some of these results: No signal at the amounts used counts as a negative. For some of these results: Tags and fusion partners may be left off the protein sequences shown. For some of these results: A weaker result is weaker than the reference pair of the same experiment.

The chains behind the UniProt entries cited, without tags or fusion partners. Where a name states a change or a piece, a line headed by the entry shows the natural chain unless it says otherwise.
UniProt P26497: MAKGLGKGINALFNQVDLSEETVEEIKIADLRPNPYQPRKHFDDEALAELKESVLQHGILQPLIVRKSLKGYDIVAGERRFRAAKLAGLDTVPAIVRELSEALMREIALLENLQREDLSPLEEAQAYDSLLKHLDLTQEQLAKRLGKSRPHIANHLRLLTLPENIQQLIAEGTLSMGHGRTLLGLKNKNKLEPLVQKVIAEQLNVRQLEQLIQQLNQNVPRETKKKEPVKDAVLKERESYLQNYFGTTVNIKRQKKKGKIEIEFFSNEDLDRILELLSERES

Test in all cases: SPR
Series [1] concerns the target T1, ParB (Caulobacter crescentus) (UniProt B8GW30).
T1 sequence (looked up, limits assumed): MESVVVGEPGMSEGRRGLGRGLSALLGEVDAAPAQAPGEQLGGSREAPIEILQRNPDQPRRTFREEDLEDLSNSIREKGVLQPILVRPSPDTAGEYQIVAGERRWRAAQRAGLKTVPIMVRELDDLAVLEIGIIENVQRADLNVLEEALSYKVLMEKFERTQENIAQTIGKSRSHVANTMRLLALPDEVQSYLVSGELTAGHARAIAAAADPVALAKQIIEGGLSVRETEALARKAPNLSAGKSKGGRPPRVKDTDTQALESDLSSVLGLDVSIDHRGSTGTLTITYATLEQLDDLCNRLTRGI
As to conditions: SPR (ReDCaT, Biacore T200), HBS-EP+: 10 mM HEPES pH 7.4, 150 mM NaCl, 3 mM EDTA, 0.005% Surfactant P20, 25 C, ParB given as dimer, recombinant protein, protein details: C-terminal His6, label: biotin via captured ReDCaT linker. For orientation: In SPR one partner is held on a chip, and binding of the other changes the refractive index at the surface.

For series [2], the target named is Spo0J (ParB) (Bacillus subtilis) (UniProt P26497). As to conditions: apparent Kd; SPR (ReDCaT, Biacore T200), HBS-EP+: 10 mM HEPES pH 7.4, 150 mM NaCl, 3 mM EDTA, 0.005% Surfactant P20, 25 C; ParB given as dimer; recombinant protein; label: biotin via captured ReDCaT linker.
The target of series [3] is T2, ParB (G101S) (Caulobacter crescentus) (UniProt B8GW30).
T2 sequence (looked up, limits assumed): T1 sequence (looked up, limits assumed) with G101S
As to conditions: 200 nM protein, binds as well as wild type; SPR (ReDCaT, Biacore T200), HBS-EP+: 10 mM HEPES pH 7.4, 150 mM NaCl, 3 mM EDTA, 0.005% Surfactant P20, 25 C; ParB given as dimer; recombinant protein; protein details: C-terminal His6; label: biotin via captured ReDCaT linker.

The target of series [4] is T3, ParB (R104A) (Caulobacter crescentus) (UniProt B8GW30).
T3 sequence (looked up, limits assumed): T1 sequence (looked up, limits assumed) with R104A
As to conditions: 200 nM protein, binds as well as wild type; SPR (ReDCaT, Biacore T200), HBS-EP+: 10 mM HEPES pH 7.4, 150 mM NaCl, 3 mM EDTA, 0.005% Surfactant P20, 25 C; ParB given as dimer; recombinant protein; protein details: C-terminal His6; label: biotin via captured ReDCaT linker.

For the sequence “ATGCCAAGCCCCGTGGAACAGTTG / CAACTGTTCCACGGGGCTTGGCATCCTACCCTACGTCCTCCTGC [parS site 1]”, in series [1] (Kd not determined), the binding result is recorded as “binds more weakly”.

On to “CAATAATAGACCGTAGTGAGAACA / TGTTCTCACTACGGTCTATTATTGCCTACCCTACGTCCTCCTGC [B. subtilis scrambled parS]”, for which, in series [2], the Kd amounted to 183 nM.

“GGGATGTTCCACGTGAAACATCAC / GTGATGTTTCACGTGGAACATCCCCCTACCCTACGTCCTCCTGC [parS site 4]”: the binding result in series [3] and in series [4] was “binds” in each case. In addition, the Kd in series [1] turned out to be 30 nM.

With “GGCTACACGACGTCTCGCTCACTA / TAGTGAGCGAGACGTCGTGTAGCCCCTACCCTACGTCCTCCTGC [scrambled parS (Scramble3)]”, the binding result in series [1] (almost no or very weak binding) is recorded as “no binding”.

Regarding “CCCGCCGCCCCCGTGAAACGTCCG / CGGACGTTTCACGGGGGCGGCGGGCCTACCCTACGTCCTCCTGC [parS site 6]”, the binding result in series [1] (Kd not determined) is reported as “binds more weakly”.

The values are drawn from PMC5815017.
